In article doi:10.1101/2022.06.14.496170 one finds binding data, which are given here for two substances.

The target of this assay is T1, PICLN (Arabidopsis thaliana) (Arabidopsis thaliana) (UniProt Q9LVA7).
T1 sequence: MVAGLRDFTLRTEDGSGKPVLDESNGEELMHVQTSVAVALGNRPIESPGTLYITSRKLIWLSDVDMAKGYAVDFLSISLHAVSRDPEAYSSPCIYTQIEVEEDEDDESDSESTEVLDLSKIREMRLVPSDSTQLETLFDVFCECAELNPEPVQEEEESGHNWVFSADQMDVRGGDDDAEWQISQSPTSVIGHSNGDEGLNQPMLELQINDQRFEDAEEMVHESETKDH
Description: two-hybrid.

Results are given in words; binding and its absence hold for the method and conditions named. Binding calls can cover weak binding; strength is not graded here.

As for SmE1/PCP (Arabidopsis thaliana), the binding result is “binds weakly”.

In the case of SmGb (Arabidopsis thaliana), the binding result is “no binding”.
